Measurements as given in patent US8575320B2, “Compositions and methods for separating, characterizing and administering soluble selenoglycoproteins” (Alltech, Inc., priority 2010, dated 2013).
At least one structure is not confirmed: it was looked up by name or label, or the drawing left a doubt.

Tested on: gene expression in chicken breast muscle tissue
Experiment: Microarray gene expression profile in breast muscle of broilers fed different selenium sources
Type: in vivo
Protocol: Breast muscle tissue from chickens referenced in Example 3 was used to assess similarities and differences in gene expression profiles elicited by the following dietary treatments: Treatment 1-basal (Control); Treatment 2-Control+0.3 ppm sodium-selenite (SS); Treatment 3-Control+0.3 ppm SEL-PLEX; Treatment 6-0.3 ppm SGP fraction extracted from SEL-PLEX (SP) at pH 4.0. […] As such, experiments were conducted during development of embodiments of the invention in order to determine if animals receiving SGP fraction pH 4.0 experienced similar in vivo effects (e.g., gene expression changes) observed in SP fed animals, or whether significant, measurable differences existed.
At 18-days of age, five chickens from each treatment group (described above and in Tables 3 and 4) were randomly selected and euthanized by argon asphyxiation, followed by cervical dislocation. Samples of breast muscle tissue (1 gram) were rapidly removed and flash frozen in liquid nitrogen. Samples were stored at −80° C. until analyzed.
Total RNA was isolated from frozen tissue using TRIZOL reagent (INVITROGEN, Carlsbad, Calif.) according to the manufacturer's protocol and purified using a RNEASY kit (QIAGEN, Valencia, Calif.). Total RNA was quantified by absorbance at 260 nm and integrity was confirmed by agarose gel electrophoresis and ethidium bromide staining of the 28S and 18S bands.
Data were processed and each probe set was labeled as P (present), M (marginal) or A (absent) based the ratio of signal to noise strength using the AFFYMETRIX MAS5.0 expression summary algorithm.
GeneSpring GX 10.0 (Silicon Genetics, Redwood, Calif.) was used to qualify and normalize microarray data and to perform statistical and gene expression pattern analyses.
To minimize the possibility of misleading findings, probe sets with low signal intensity (labeled as ‘Absent’ by the MAS5.0 algorithm) were excluded from further analysis. […] Only genes that differed from the Control (P≦0.05) and having a corresponding signal intensity fold change (FC)≧1.2 were deemed to be changed.

O=[Se](O)O [SS, sodium selenite]
MAPK8 gene regulation (FIG. 5): commonly regulated | TGFBI gene regulation (FIG. 5): commonly regulated | complement component 1R (C1R) gene regulation (FIG. 6): not | ubiquination factor E4A (UBE4A) gene regulation (FIG. 6): not
